These are yes or no findings as the source states them, for the method shown. Binding seen in cells or lysates may run through a third protein. Some binding calls cover weakened binding; strength is not graded here. Where a sequence is shown, tags or fusion partners need not be part of it.
Target: T1, FLAG-tagged NME3 (NME/NM23 nucleoside-diphosphate kinase 3), wild type (human) (UniProt Q13232)
T1 sequence: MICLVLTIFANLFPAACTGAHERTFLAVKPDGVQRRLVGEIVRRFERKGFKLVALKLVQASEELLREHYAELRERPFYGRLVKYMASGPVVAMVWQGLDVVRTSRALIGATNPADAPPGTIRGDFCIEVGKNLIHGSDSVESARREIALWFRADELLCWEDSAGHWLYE
Experiment: co-IP; FLAG-tagged and V5-tagged proteins coexpressed in HEK293T cells (calcium phosphate, 24 h); lysis in 1% Triton X-100, 20 mM Tris pH 7.5, 50 mM NaCl, 50 mM NaF, 15 mM Na4P2O7, 0.1 mM EDTA; anti-FLAG M2 agarose beads 2 h; Western blot with anti-V5 and anti-FLAG

B1: V5-tagged NEK8 (enzyme, UniProt Q86SG6 1-692)
chain: MEKYERIRVVGRGAFGIVHLCLRKADQKLVIIKQIPVEQMTKEERQAAQNECQVLKLLNHPNVIEYYENFLEDKALMIAMEYAPGGTLAEFIQKRCNSLLEEETILHFFVQILLALHHVHTHLILHRDLKTQNILLDKHRMVVKIGDFGISKILSSKSKAYTVVGTPCYISPELCEGKPYNQKSDIWALGCVLYELASLKRAFEAANLPALVLKIMSGTFAPISDRYSPELRQLVLSLLSLEPAQRPPLSHIMAQPLCIRALLNLHTDVGSVRMRRAEKSVAPSNTGSRTTSVRCRGIPRGPVRPAIPPPLSSVYAWGGGLGTPLRLPMLNTEVVQVAAGRTQKAGVTRSGRLILWEAPPLGAGGGSLLPGAVEQPQPQFISRFLEGQSGVTIKHVACGDFFTACLTDRGIIMTFGSGSNGCLGHGSLTDISQPTIVEALLGYEMVQVACGASHVLALSTERELFAWGRGDSGRLGLGTRESHSCPQQVPMPPGQEAQRVVCGIDSSMILTVPGQALACGSNRFNKLGLDHLSLGEEPVPHQQVEEALSFTLLGSAPLDQEPLLSIDLGTAHSAAVTASGDCYTFGSNQHGQLGTNTRRGSRAPCKVQGLEGIKMAMVACGDAFTVAIGAESEVYSWGKGARGRLGRRDEDAGLPRPVQLDETHPYTVTSVSCCHGNTLLAVRSVTDEPVPP
binding: binds

Source: PMC6166740
